Experiment [1] concerns the target T1, Rmi1 (yeast two-hybrid fusion) (Saccharomyces cerevisiae (SK1)) (UniProt Q02685).
T1 sequence: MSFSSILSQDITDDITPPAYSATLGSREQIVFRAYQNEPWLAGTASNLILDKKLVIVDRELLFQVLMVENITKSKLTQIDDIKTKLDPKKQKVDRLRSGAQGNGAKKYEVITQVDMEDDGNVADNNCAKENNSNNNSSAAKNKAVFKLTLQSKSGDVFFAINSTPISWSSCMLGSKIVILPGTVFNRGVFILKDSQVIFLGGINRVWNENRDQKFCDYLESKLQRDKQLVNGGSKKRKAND
Briefly: two-hybrid.

Amino acid sequences for entries named in this document (tags omitted).
UniProt P51979: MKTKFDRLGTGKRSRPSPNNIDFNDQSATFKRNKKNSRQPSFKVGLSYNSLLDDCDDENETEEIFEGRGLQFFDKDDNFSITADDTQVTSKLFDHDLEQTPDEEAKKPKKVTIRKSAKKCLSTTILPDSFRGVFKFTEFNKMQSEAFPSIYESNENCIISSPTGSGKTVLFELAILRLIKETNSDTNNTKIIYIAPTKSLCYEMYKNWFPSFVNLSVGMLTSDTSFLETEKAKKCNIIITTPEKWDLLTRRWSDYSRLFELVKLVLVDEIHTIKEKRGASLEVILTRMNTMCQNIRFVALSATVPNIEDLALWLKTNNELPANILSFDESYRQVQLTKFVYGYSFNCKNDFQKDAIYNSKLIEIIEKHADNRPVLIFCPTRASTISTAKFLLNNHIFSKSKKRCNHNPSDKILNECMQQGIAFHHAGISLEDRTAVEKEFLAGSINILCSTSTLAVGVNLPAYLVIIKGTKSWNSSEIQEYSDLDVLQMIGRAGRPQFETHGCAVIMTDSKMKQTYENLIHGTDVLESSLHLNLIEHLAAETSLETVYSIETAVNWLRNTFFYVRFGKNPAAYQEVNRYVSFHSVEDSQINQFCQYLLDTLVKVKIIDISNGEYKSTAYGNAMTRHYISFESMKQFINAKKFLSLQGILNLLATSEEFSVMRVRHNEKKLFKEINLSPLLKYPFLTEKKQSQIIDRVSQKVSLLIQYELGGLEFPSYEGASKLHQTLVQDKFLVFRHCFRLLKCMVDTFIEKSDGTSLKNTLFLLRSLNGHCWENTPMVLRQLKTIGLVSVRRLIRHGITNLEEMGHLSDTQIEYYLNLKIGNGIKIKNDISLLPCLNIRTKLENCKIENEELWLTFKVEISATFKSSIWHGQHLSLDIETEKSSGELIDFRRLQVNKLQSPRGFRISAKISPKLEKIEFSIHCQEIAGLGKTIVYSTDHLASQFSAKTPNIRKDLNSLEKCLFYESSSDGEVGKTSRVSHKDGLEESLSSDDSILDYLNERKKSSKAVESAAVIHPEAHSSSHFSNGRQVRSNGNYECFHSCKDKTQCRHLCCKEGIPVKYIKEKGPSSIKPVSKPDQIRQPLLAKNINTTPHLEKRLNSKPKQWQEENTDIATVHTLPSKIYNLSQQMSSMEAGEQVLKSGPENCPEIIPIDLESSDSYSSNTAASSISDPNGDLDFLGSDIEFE

In experiment [2] the target is T2, Top3 (yeast two-hybrid fusion) (Saccharomyces cerevisiae (SK1)) (UniProt P13099).
T2 sequence: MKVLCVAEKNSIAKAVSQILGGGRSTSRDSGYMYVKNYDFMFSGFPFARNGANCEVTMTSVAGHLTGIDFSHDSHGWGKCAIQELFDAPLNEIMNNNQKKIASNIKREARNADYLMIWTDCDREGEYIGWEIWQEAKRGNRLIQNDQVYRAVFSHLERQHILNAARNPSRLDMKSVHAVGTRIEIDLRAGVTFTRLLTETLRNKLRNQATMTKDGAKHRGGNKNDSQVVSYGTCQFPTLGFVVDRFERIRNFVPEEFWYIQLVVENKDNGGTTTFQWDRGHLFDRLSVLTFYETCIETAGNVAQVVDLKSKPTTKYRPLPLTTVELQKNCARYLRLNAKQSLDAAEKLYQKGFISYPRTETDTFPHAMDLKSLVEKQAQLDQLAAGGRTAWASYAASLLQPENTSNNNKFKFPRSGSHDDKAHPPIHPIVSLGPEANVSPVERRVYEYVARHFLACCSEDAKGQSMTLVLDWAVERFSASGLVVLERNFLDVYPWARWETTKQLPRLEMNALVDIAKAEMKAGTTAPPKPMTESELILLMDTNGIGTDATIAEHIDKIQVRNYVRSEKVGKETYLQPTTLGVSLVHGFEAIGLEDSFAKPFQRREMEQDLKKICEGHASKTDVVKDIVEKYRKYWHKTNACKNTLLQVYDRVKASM
Briefly: two-hybrid.

Experiment [3] deals with T3, HA-tagged Top3 (3 copies of HA, C-terminal) (Saccharomyces cerevisiae (SK1)) (UniProt P13099).
T3 sequence: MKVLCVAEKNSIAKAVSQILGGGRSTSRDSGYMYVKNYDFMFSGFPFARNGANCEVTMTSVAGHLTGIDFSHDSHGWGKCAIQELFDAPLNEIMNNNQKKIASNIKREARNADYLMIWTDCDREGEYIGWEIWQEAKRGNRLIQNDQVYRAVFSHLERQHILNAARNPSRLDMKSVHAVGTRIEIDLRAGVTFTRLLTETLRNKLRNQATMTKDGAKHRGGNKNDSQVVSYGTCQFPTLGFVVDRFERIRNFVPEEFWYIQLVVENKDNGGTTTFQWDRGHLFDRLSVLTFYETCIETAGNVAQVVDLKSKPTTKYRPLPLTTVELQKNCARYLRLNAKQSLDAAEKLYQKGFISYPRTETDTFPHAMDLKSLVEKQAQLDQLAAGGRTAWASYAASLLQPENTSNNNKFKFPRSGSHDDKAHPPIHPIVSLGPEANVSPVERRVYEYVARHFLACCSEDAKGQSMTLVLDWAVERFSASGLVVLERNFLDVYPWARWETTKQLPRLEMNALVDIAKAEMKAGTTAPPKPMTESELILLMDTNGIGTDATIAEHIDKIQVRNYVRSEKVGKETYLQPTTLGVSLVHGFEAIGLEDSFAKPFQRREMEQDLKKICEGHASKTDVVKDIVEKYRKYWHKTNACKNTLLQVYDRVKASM
As to the kind of experiment: co-IP.

Experiment [4] has as its target T4, GST-Rmi1 (Saccharomyces cerevisiae (SK1)) (UniProt Q02685).
T4 sequence: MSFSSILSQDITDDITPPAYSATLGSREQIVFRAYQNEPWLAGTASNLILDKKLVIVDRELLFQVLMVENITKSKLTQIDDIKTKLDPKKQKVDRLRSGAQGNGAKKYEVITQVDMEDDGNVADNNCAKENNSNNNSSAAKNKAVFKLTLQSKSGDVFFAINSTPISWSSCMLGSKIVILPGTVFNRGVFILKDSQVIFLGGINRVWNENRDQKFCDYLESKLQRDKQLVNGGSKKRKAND
Briefly: co-purification.

These are yes or no findings as the source states them, for the method shown. For some of these results: In cells and extracts the contact can be indirect. Some results given as binding are weak or reduced against the parent protein; the word gives no strength. Sequences can lack the tags named with a protein.

Take “Mer3 (yeast two-hybrid fusion) (from UniProt P51979 1-1187) (enzyme)”: the binding entry in experiment [1] and in experiment [2] was “binds” each time.

With “Myc-tagged Mer3 (9 copies of Myc, C-terminal) (from UniProt P51979 1-1187) (enzyme)”, the binding result in experiment [3] was “binds”.

B1: Top3 (untagged, subunit of the Top3/Rmi1 complex) (enzyme)
chain: MKVLCVAEKNSIAKAVSQILGGGRSTSRDSGYMYVKNYDFMFSGFPFARNGANCEVTMTSVAGHLTGIDFSHDSHGWGKCAIQELFDAPLNEIMNNNQKKIASNIKREARNADYLMIWTDCDREGEYIGWEIWQEAKRGNRLIQNDQVYRAVFSHLERQHILNAARNPSRLDMKSVHAVGTRIEIDLRAGVTFTRLLTETLRNKLRNQATMTKDGAKHRGGNKNDSQVVSYGTCQFPTLGFVVDRFERIRNFVPEEFWYIQLVVENKDNGGTTTFQWDRGHLFDRLSVLTFYETCIETAGNVAQVVDLKSKPTTKYRPLPLTTVELQKNCARYLRLNAKQSLDAAEKLYQKGFISYPRTETDTFPHAMDLKSLVEKQAQLDQLAAGGRTAWASYAASLLQPENTSNNNKFKFPRSGSHDDKAHPPIHPIVSLGPEANVSPVERRVYEYVARHFLACCSEDAKGQSMTLVLDWAVERFSASGLVVLERNFLDVYPWARWETTKQLPRLEMNALVDIAKAEMKAGTTAPPKPMTESELILLMDTNGIGTDATIAEHIDKIQVRNYVRSEKVGKETYLQPTTLGVSLVHGFEAIGLEDSFAKPFQRREMEQDLKKICEGHASKTDVVKDIVEKYRKYWHKTNACKNTLLQVYDRVKASM
B1: the binding entry in experiment [4] was “binds”.

These data come from doi:10.1101/2022.06.27.497840 (bioRxiv, 2022).
